These are yes or no findings as the source states them, for the method shown. Some entries that bind do so weakly or less than the wild type.
Legend:
[1] = target: hCEACAM1 variant V39F (human) (UniProt P13688); assay: 'structure analysis', no further detail
[2] = target: hCEACAM1 variant I91F (human) (UniProt P13688); assay: 'structure analysis', no further detail

Amino acid sequences for entries named in this document (tags omitted). A change or cut given only in a name is not applied to a line headed by its entry.
UniProt P13688: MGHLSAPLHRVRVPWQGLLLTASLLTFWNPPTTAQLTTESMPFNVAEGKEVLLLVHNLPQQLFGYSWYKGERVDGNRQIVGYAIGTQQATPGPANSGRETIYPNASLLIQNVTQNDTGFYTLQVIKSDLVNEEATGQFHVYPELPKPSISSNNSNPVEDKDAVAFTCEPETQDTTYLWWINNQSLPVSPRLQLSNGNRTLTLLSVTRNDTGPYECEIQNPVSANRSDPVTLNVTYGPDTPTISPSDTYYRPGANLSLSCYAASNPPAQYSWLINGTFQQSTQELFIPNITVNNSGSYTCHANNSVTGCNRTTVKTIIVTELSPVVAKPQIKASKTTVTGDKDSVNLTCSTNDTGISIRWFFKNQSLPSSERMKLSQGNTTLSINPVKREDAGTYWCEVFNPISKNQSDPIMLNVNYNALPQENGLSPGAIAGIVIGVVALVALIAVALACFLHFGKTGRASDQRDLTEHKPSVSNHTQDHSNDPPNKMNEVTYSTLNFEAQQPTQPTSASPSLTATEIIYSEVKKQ

hCEACAM1 variant V39F (from UniProt P13688 35-142) (receptor)
binding [1]: binds

hCEACAM1 variant I91F (from UniProt P13688 35-142) (receptor)
binding [2]: binds
